Data on 86 sequences can be found in the supplement of paper PMC3334620.

The full ranking holds about 33,000 sequences; the median of “E-score (-0.5 to 0.5)” is about -0.016, and the highest 2% start at about 0.3. The list shows a part of the results.

For this assay, the target named is T1, Yer184c (UniProt P39961).
T1 sequence: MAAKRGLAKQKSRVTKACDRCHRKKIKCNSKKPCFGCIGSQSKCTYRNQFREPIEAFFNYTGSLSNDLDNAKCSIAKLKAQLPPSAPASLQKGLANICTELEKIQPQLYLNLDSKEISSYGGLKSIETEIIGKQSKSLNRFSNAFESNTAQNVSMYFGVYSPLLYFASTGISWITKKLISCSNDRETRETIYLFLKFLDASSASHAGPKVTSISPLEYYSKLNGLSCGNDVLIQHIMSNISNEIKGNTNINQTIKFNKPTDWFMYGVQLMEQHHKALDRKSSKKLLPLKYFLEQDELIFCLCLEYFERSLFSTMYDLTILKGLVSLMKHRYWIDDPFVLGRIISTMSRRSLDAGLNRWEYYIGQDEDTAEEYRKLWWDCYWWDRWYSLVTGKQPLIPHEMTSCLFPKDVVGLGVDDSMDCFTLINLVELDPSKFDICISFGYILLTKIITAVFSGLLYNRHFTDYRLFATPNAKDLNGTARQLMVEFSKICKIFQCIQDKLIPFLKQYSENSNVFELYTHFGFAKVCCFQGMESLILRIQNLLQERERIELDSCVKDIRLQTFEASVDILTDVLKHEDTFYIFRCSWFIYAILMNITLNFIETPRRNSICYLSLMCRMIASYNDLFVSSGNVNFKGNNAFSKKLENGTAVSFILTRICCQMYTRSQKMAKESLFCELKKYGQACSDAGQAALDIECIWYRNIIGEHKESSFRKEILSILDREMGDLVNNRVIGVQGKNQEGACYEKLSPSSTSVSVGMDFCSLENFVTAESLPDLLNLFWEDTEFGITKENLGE
In words: PBM E-score (8-mer binding enrichment) (E-score (-0.5 to 0.5)); higher = stronger / more preferred TF binding. The settings on record: protein concentration: 100 nM; construct: GST-full length. On the procedure: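 Universal 'all 10-mer' protein binding microarrays (Agilent AMADID 015681) probed with GST-tagged S. cerevisiae TFs (full-length or DBD) made by in vitro transcription/translation (PURExpress), about 100-200 nM. Bound TF was detected with fluorescent anti-GST. Each ungapped 8-mer (which stands for itself and its reverse complement) is scored by the PBM enrichment score (E-score), a modified Wilcoxon-Mann-Whitney statistic from -0.5 to +0.5, computed with the Universal PBM Analysis Suite. Scale: above 0.35 generally sequence-specific binding.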
As to CATCCAAA, the “PBM E-score” value was -0.0139. Regarding GGTTCTCA, the “PBM E-score” value was found to be 0.0404. As to CACTTCGG, the “PBM E-score” value turned out to be 0.204. As for AGTGGCAG, the “PBM E-score” value is -0.195. With ATTATATG, the “PBM E-score” value is 0.265. The result for CTCAATGA reads -0.0551; that for CCCCGTAG, -0.175; that for AGTAGTTC, 0.246.

For the sequence CAAGCGCC, the “PBM E-score” value is 0.0709. For the sequence CACAGGAC, the “PBM E-score” value turned out to be 0.0145.

As for AGGGTTGC, the “PBM E-score” value is -0.141. Consider ACTTTAGG, for which the “PBM E-score” value is -0.118. In the case of AAATCGAT, the “PBM E-score” value amounted to 0.0714. The result for GTCGGGCA reads -0.191; that for ACCTAGAG, -0.224.

On to CCTCTCAG, for which the “PBM E-score” value is -0.379. As for GACTCCGC, the “PBM E-score” value was -0.0754. Consider GGCGCTAA, for which the “PBM E-score” value is -0.0408. With CTTTGCAA, the “PBM E-score” value came out at 0.155. ACCGGAAC: the “PBM E-score” value worked out at 0.398. Take ACCCGTTG: the “PBM E-score” value is -0.104. Consider AGACGTTG, for which the “PBM E-score” value is 0.0176. On to GAAAAGTC, for which the “PBM E-score” value was -0.0181.

On to AAGAGAGG, for which the “PBM E-score” value is -0.0707. AAATGTTG: the “PBM E-score” value was -0.166. As for TACATGGA, the “PBM E-score” value is -0.237.

For the sequence AGAATGCT, the “PBM E-score” value was -0.168.

As to CCAGCCAC, the “PBM E-score” value is -0.0947. Consider ATTATTGA, for which the “PBM E-score” value was -0.016.

In the case of CCCCGTAA, the “PBM E-score” value turned out to be 0.012. For GAGCCTAC, the “PBM E-score” value is -0.00729.

With ATGAAACG, the “PBM E-score” value is 0.00966. The same measure for ATGTGGAA: -0.0417; for GGAATAAC: 0.255; for CTGGTTAA: 0.191. For CCTCTTAG, the “PBM E-score” value was found to be 0.149. The result for ACTTCAGA reads -0.00383; that for TAGCGCCA, -0.177; that for CAACTGAG, 0.0797.

For the sequence CGGTCAAC, the “PBM E-score” value is 0.159. On to GACAACCA, for which the “PBM E-score” value came to 0.0168. For AGACGCCG, the “PBM E-score” value was determined as 0.185. As to GAAGCCGA, the “PBM E-score” value was 0.287. Turning to TAGGGATA, the “PBM E-score” value was -0.0541. For CGGCCCAC, the “PBM E-score” value stood at 0.093. The result for GGCATCGA reads -0.149; that for CCCTCCGC, -0.136. As for AATACACA, the “PBM E-score” value was found to be 0.0832. As to ACCTATGG, the “PBM E-score” value was -0.0511.

Regarding CTATCCCA, the “PBM E-score” value is -0.291. For GAGAAACC, the “PBM E-score” value came out at 0.0354.

Take AGACGAGG: the “PBM E-score” value is -0.283. As to CCTCCTTA, the “PBM E-score” value is -0.179. As to AGTAATTA, the “PBM E-score” value was found to be 0.11.

In the case of ACGTGTGA, the “PBM E-score” value was -0.24. In the case of ATAACGCC, the “PBM E-score” value was -0.0963. The result for ACTGTTCG reads 0.254. The result for AACTCTTC reads -0.103. The result for TAAACGTA reads -0.074. On to ATCGCGTA, for which the “PBM E-score” value was -0.172. As to AACCGGTG, the “PBM E-score” value stood at 0.214. In the case of TAGTTTGA, the “PBM E-score” value turned out to be 0.104. Take CTCGTACA: the “PBM E-score” value is -0.132.

Turning to GCTGGGCC, the “PBM E-score” value was -0.209.

In the case of CGGGAATC, the “PBM E-score” value turned out to be 0.125. Regarding TATTCACA, the “PBM E-score” value stood at 0.218. Take CACTCGCG: the “PBM E-score” value amounted to 0.059. Regarding GCTTGACA, the “PBM E-score” value amounted to 0.0231. AACTGTGT: the “PBM E-score” value was -0.0437.

AGCAAGCA: the “PBM E-score” value was -0.222. Turning to CGAGCAAC, the “PBM E-score” value was 0.0276. With TCCATGAA, the “PBM E-score” value worked out at 0.228. Turning to GGTTACCA, the “PBM E-score” value worked out at 0.0241.

On to GACGCTGA, for which the “PBM E-score” value is 0.00183. The result for GCCCCCGC reads -0.233. ACGGCCAT: the “PBM E-score” value is -0.251.

Turning to GTCGATTA, the “PBM E-score” value is 0.206. The same measure for TCACGTAA: -0.16; for CGGCCAAA: 0.258.

Consider ATTGTTAA, for which the “PBM E-score” value was 0.15.

Consider CACCGCTA, for which the “PBM E-score” value is -0.0823. The result for CTGTTAAG reads -0.0513; that for ATAGAACA, -0.0179. For the sequence CCTGTTAA, the “PBM E-score” value is -0.0274.

For AAAGGTCT, the “PBM E-score” value is -0.0165. As to AGAGTGTA, the “PBM E-score” value is -0.101.
